According to patent publication US9757400B2, “Peptidomimetic inhibitors of post-proline cleaving enzymes” (Trustees of Tufts College, priority 2001, dated 2017):
Where two headings read alike, the source gives them in different places. At least one structure is not confirmed: it was looked up by name or label, or the drawing left a doubt.

Tests used:
[1] = Cyclization equilibrium, ratio of [cyclic]:[open] forms; assay type: physicochemical; conditions: neutral pH
Description: In this example, Xaa-boro-Ala analogs containing bulky R substituent will be constructed to prevent cyclization and increase biological activity. […] The open, active, inhibitory chain species is favored at low pH while the cyclized structure is favored at high pH. Also, the reaction is fully reversible: the open chain becomes predominate at low pH. The open chain to cyclic species reaction involves a trans to cis isomerization of the proline and the formation of a new N—B bond. […] This means that less than 1% Pro-boroPro and less than 0.1% of Val-boroPro exists as the open chain, inhibitory species, at equilibrium at pH 7.0.
One feature of the present invention relates to the equilibrium constant for cyclization. […] In addition, the cis-trans isomerization rate, and therefore the rates of cyclization and uncyclization, are also much faster for compounds of the present invention. This feature is attributed by the inventors to a bulky substituent effect, e.g. where R in FIG. 8 represents a cyclohexyl.

[2] = neutral pH; Gutheil and Bachovchin 1993; cited from earlier work

Compound	ratio of [cyclic]:[open] forms [1]	ratio of [cyclic]:[open] forms [2]
CC(NC(=O)C(N)C1CCCCC1)B(O)O (centres unmarked) [Cyclohexylglycine-boroAla, Cyclohexylglycine boroAla]	approximately 2:1	–
O=C(C1CCCN1)N1CCCC1B(O)O (centres unmarked) [Pro-boroPro]	–	156:1
